Binding data for one molecule are collected here from PMC2238750.

No constants are given. Whether binding was seen depends on the method and setting. In cells and extracts the contact can be indirect. Binding can be weak; no strength is given.

Experiment [1] addresses N-terminal region of Eps15 comprising three EH domains (EH1-EH2-EH3) fused to GST (not stated (mouse in p-0016, human in p-0034)). Nature of the experiment: pull-down; GST fusions (50 ug) on glutathione-sepharose beads incubated with Hek293 cell extract; EH buffer, 2 h at 4 °C; endogenous Eps15 detected with anti-Eps15 blot; only the target purified.
In experiment [2] the target is isolated GST-EH1 domain of Eps15. The description is as above.

B1: full length Eps15 (endogenous, Hek293) (protein, UniProt P42566 1-896)
chain: MAAAAQLSLTQLSSGNPVYEKYYRQVDTGNTGRVLASDAAAFLKKSGLPDLILGKIWDLADTDGKGILNKQEFFVALRLVACAQNGLEVSLSSLNLAVPPPRFHDTSSPLLISGTSAAELPWAVKPEDKAKYDAIFDSLSPVNGFLSGDKVKPVLLNSKLPVDILGRVWELSDIDHDGMLDRDEFAVAMFLVYCALEKEPVPMSLPPALVPPSKRKTWVVSPAEKAKYDEIFLKTDKDMDGFVSGLEVREIFLKTGLPSTLLAHIWSLCDTKDCGKLSKDQFALAFHLISQKLIKGIDPPHVLTPEMIPPSDRASLQKNIIGSSPVADFSAIKELDTLNNEIVDLQREKNNVEQDLKEKEDTIKQRTSEVQDLQDEVQRENTNLQKLQAQKQQVQELLDELDEQKAQLEEQLKEVRKKCAEEAQLISSLKAELTSQESQISTYEEELAKAREELSRLQQETAELEESVESGKAQLEPLQQHLQDSQQEISSMQMKLMEMKDLENHNSQLNWCSSPHSILVNGATDYCSLSTSSSETANLNEHVEGQSNLESEPIHQESPARSSPELLPSGVTDENEVTTAVTEKVCSELDNNRHSKEEDPFNVDSSSLTGPVADTNLDFFQSDPFVGSDPFKDDPFGKIDPFGGDPFKGSDPFASDCFFRQSTDPFATSSTDPFSAANNSSITSVETLKHNDPFAPGGTVVAASDSATDPFASVFGNESFGGGFADFSTLSKVNNEDPFRSATSSSVSNVVITKNVFEETSVKSEDEPPALPPKIGTPTRPCPLPPGKRSINKLDSPDPFKLNDPFQPFPGNDSPKEKDPEIFCDPFTSATTTTNKEADPSNFANFSAYPSEEDMIEWAKRESEREEEQRLARLNQQEQEDLELAIALSKSEISEA
On to B1, for which the binding entry in experiment [1] and in experiment [2] was “binds” in each case.
